Experimental findings from article PMC6237600 are described below.

Sequences of proteins named here, by UniProt entry; tags and fusion partners are left off. Residues count along the entry.
UniProt P08581, 25-1390: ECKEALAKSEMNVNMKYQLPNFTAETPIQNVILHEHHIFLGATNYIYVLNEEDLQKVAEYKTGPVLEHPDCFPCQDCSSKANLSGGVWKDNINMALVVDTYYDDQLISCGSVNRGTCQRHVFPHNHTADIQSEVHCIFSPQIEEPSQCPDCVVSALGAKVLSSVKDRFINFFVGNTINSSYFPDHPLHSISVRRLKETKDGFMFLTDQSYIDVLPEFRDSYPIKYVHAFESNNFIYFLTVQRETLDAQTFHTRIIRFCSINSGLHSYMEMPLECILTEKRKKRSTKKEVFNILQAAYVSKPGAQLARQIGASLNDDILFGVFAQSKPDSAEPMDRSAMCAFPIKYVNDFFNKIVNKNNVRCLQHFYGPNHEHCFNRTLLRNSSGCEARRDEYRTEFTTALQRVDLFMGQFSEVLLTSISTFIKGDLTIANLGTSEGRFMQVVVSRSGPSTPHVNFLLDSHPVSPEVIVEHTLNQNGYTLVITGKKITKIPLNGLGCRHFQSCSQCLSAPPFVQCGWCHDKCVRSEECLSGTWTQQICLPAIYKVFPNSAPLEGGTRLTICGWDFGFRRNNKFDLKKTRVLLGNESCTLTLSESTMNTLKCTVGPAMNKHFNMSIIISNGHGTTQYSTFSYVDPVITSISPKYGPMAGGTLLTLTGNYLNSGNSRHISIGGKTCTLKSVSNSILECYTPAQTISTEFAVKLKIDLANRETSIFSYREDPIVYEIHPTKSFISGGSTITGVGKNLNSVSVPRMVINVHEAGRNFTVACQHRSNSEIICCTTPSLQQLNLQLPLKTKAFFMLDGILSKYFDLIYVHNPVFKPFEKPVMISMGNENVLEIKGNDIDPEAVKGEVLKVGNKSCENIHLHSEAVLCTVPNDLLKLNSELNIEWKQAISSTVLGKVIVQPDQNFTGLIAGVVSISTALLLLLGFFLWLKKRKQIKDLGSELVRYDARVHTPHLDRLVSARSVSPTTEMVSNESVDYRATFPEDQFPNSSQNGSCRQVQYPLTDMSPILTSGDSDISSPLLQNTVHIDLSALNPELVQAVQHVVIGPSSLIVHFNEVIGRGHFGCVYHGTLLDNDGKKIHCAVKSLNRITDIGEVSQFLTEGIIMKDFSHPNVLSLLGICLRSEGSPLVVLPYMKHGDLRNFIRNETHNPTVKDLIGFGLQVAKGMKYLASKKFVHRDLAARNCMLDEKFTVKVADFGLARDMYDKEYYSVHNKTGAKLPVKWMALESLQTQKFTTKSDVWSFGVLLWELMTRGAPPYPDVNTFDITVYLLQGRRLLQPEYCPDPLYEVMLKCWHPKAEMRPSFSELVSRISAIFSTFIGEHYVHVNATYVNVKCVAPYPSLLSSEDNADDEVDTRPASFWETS

This data set deals with c-met receptor tyrosine kinase (native, on MM cell surface) (Homo sapiens) (UniProt P08581). Put plainly: flow cytometry cell binding. As to conditions: 1x PBS, 4.5 g/L glucose, 5 mM MgCl2, 0.1 mg/mL yeast tRNA, 1 mg/mL BSA, 4 C, 30 min, 3e5 cells in 200 uL, pH not stated, protein on the cell surface, single-stranded DNA. (In general: A flow cytometer gives signals particle by particle.)

Construct, isoform or probe ends are uncertain for at least one entry. At least one result comes from cells or an extract, where the contact may be indirect. The comparison behind a weaker result is the experiment's own reference, which may not be listed here.

For the sequence “ATCAGGCTGGATGGTAGCTCGGTCGGGGTGGGTGGGTTGGCAAGTCTGAT [SL1]”, the binding result runs as follows: (MM.1S treated with ARQ197 5 or 15 uM (surface c-met decreased)) “binds more weakly”; (MM.1S with c-met siRNA 100 nM (target depleted, not a lower affinity)) “binds more weakly”.
